Source: the supplement of paper PMC6411743
± gives the standard deviation of the averaged measurements. This is a selection; strong and weak results do not stand in their true shares. Most values lie at the level of the controls, where differences are scatter.

Sequences of proteins named here, by UniProt entry; tags and fusion partners are left off. A change or cut given only in a name is not applied to a line headed by its entry.
UniProt O43172: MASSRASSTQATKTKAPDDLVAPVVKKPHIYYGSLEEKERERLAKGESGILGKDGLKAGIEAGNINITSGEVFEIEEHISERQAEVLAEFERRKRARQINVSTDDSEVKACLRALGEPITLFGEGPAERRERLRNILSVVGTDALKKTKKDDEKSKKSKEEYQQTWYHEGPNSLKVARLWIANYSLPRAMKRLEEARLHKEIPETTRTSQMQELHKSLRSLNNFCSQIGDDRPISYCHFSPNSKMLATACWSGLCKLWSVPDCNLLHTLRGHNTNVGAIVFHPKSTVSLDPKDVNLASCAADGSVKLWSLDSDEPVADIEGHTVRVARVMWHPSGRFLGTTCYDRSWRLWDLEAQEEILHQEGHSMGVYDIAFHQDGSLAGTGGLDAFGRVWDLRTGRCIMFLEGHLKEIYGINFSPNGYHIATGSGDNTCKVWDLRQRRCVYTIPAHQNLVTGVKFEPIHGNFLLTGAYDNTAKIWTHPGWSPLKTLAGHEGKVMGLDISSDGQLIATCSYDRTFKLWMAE
UniProt O15111: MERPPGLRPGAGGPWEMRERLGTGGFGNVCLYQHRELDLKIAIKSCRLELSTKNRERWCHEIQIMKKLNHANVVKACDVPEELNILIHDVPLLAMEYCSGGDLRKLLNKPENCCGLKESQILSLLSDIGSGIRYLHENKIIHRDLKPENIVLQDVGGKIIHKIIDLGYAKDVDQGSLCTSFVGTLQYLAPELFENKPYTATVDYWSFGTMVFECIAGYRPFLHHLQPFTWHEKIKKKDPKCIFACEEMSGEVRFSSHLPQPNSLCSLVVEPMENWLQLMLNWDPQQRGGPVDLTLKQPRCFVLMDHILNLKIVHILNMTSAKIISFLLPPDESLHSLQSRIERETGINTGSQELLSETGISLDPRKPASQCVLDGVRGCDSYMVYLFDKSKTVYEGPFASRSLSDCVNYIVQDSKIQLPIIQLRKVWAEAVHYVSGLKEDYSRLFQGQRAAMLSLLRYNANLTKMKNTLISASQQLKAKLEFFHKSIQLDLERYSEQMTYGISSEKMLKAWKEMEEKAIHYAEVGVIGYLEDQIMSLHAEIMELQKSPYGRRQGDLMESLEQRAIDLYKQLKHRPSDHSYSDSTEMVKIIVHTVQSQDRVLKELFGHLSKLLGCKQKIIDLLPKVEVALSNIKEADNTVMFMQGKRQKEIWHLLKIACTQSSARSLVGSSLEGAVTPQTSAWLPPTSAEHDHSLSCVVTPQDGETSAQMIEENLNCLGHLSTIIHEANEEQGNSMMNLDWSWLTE
UniProt O15305: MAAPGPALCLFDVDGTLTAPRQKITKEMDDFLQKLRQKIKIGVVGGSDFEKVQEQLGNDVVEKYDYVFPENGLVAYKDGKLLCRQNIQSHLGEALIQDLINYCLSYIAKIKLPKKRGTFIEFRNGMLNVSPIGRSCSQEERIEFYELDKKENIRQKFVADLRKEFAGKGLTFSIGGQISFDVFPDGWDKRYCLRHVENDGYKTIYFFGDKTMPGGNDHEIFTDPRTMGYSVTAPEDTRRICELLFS
UniProt Q16543: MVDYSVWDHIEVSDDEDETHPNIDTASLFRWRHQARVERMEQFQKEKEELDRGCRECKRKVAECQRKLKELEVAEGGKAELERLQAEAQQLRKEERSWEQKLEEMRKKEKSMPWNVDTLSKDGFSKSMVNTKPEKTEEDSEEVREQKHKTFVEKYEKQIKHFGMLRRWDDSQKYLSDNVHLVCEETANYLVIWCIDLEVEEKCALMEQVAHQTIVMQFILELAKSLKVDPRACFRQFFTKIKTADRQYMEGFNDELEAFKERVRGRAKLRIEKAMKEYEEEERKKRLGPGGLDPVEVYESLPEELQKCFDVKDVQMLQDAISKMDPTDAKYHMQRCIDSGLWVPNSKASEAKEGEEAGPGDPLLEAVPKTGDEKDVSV
UniProt O00115: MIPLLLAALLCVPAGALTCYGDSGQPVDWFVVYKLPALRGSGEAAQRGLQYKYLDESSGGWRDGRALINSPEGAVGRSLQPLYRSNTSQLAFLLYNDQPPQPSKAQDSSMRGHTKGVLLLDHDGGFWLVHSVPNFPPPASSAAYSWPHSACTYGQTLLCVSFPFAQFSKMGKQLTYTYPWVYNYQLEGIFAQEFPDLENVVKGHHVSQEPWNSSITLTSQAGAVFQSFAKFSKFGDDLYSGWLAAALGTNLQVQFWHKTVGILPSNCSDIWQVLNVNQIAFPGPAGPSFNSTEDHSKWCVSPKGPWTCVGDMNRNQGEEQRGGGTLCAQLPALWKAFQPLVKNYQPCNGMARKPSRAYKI
UniProt O00264: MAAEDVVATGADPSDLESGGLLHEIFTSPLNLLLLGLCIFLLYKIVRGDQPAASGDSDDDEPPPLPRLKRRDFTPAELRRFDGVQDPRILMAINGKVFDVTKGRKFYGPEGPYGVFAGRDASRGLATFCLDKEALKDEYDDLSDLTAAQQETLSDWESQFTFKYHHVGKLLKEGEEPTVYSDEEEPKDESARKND
UniProt O43156, whole entry: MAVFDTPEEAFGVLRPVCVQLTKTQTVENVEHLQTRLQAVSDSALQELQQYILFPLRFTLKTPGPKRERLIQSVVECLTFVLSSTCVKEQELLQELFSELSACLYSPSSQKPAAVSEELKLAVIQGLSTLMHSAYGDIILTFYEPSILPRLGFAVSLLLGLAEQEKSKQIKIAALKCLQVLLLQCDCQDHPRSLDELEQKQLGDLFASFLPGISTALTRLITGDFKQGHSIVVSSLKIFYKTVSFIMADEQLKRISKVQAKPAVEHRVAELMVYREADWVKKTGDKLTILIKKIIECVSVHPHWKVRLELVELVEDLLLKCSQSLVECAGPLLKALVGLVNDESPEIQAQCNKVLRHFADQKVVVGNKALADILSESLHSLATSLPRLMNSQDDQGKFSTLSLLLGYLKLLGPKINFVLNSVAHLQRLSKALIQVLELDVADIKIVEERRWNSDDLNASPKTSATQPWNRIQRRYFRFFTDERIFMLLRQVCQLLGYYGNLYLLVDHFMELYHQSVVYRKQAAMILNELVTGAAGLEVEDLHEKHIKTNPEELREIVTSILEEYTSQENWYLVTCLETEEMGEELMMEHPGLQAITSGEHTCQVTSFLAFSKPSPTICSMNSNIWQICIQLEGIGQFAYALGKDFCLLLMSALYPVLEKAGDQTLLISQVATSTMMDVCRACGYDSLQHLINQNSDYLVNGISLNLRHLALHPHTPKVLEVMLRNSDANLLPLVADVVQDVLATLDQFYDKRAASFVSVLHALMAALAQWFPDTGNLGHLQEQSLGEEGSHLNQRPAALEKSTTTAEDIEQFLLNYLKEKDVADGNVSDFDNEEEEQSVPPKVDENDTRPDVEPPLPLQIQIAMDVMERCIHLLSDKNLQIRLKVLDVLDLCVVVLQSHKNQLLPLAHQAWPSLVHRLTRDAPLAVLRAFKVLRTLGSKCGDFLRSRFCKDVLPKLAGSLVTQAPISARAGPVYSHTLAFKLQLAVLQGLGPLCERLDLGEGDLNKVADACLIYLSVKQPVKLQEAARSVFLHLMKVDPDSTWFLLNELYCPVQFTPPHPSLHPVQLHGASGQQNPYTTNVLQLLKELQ
UniProt O00487, whole entry: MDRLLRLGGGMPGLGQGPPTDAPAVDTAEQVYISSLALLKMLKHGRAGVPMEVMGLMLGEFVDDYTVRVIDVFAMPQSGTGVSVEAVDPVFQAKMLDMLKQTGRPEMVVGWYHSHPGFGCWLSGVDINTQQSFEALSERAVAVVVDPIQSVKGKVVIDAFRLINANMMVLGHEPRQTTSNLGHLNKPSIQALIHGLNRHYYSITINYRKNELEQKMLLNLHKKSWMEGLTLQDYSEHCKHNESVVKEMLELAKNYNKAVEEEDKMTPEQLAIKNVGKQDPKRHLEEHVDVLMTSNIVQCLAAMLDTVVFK
UniProt O43264: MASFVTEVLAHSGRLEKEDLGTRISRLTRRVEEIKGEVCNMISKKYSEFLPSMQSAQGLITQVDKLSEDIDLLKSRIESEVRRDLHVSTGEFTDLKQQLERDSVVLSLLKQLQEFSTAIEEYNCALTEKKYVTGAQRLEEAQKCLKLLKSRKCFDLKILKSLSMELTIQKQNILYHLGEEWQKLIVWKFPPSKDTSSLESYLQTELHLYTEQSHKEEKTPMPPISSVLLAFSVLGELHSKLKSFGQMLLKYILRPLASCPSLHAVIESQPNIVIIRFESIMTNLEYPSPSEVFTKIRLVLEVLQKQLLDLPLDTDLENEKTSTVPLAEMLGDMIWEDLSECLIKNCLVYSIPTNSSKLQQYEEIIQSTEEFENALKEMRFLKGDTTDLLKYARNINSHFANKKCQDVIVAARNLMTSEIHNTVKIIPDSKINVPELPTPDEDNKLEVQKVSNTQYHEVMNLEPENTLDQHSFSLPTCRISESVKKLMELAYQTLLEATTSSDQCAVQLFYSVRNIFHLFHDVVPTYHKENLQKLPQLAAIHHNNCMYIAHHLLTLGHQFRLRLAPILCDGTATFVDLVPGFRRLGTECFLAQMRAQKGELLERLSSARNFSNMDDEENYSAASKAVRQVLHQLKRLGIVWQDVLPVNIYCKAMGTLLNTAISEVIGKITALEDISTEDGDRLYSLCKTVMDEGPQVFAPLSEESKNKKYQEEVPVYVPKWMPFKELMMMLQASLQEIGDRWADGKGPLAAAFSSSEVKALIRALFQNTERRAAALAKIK
UniProt O43583: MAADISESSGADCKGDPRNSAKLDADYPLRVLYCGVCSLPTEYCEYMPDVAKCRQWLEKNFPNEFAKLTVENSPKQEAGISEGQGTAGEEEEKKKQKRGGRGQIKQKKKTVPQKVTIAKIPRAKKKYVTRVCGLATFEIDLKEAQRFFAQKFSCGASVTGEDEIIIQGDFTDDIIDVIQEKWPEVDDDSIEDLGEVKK
UniProt O15254: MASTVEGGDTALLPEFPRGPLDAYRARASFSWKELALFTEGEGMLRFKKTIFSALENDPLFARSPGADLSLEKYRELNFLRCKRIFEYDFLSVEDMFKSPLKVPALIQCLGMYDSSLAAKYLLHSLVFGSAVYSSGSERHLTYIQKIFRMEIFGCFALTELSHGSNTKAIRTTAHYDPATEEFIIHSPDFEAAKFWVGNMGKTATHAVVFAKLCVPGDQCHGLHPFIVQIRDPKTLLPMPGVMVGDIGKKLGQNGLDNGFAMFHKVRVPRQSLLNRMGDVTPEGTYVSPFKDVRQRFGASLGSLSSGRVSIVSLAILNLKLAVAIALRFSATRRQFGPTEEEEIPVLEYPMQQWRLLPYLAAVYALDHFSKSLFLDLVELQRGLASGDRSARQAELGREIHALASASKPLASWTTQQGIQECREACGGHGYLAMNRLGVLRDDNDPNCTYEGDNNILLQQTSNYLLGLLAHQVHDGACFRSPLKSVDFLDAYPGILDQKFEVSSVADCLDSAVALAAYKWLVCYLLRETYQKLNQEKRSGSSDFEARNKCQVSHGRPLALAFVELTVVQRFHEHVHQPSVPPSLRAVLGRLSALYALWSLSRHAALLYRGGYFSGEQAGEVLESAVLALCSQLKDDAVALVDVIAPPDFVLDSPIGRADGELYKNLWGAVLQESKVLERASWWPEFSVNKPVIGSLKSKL
UniProt O14908: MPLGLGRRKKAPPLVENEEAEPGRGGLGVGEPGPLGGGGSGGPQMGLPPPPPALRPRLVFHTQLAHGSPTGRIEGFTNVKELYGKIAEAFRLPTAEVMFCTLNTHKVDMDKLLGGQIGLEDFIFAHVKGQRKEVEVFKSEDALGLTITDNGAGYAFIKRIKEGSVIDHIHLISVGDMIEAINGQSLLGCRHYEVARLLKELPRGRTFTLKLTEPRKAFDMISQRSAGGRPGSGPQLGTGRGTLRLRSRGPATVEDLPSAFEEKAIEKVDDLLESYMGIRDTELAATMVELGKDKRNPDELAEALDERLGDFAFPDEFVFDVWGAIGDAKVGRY
UniProt O00148, whole entry: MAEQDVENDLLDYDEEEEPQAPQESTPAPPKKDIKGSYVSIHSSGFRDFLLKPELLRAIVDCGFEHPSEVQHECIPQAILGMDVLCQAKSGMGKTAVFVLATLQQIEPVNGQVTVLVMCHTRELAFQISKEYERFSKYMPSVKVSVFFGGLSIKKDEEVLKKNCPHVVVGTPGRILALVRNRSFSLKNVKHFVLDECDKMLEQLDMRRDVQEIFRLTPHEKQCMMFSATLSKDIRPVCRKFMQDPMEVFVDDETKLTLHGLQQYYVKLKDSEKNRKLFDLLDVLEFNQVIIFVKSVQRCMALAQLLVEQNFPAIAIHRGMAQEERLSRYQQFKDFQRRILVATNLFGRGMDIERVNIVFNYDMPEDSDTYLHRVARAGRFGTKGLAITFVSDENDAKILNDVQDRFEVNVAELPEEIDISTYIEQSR
UniProt Q8WVC6: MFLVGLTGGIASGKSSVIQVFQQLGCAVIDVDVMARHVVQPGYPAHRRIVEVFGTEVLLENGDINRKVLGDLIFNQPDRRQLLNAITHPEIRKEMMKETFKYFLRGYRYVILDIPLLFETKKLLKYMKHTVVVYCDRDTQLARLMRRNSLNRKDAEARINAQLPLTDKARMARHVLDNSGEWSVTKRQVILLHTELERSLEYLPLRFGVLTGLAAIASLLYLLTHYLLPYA

Compound: Nc1ncnc2c1ncn2[C@@H]1O[C@H](COP(=O)(O)OP(=O)(O)NP(=O)(O)O)[C@@H](O)[C@H]1O [adenylyl imidodiphosphate]
Assay: NP40-soluble protein abundance relative to vehicle (solubility fold change) (ratio); higher = more soluble protein in presence of AMP-PNP
Outline: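 Jurkat crude lysate (Dounce-homogenised) was treated with eight concentrations from 0.1 to 10 mM for 10 min at room temperature, then 3 min at 37 °C. It was solubilised with 0.8% NP40 and benzonase (60 min, 4 °C) and ultracentrifuged, and the supernatant was TMT-labelled for LC-MS/MS. Intensities were vsn-normalised, and the value is the fold change against the NP40-processed vehicle per replicate, from three independent experiments.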

Target | NP40-soluble protein abundance (concentration: 0.1mM) | NP40-soluble protein abundance (concentration: 0.5mM)
ARPC1B (UniProt O15143) | 0.9851 ± 0.0097 | 0.995 ± 0.046
ARPC3 (UniProt O15145) | 0.983 ± 0.11 | 1.14 ± 0.25
UniProt O43172 and related entries | 1.04 ± 0.047 | 1.02 ± 0.043
UniProt O15111 | 1.018 ± 0.0092 | 1.04 ± 0.018
PMM2 (UniProt O15305) | 0.9987 ± 0.00091 | 1.01 ± 0.017
HMGN4 (UniProt O00479) | 0.9915 ± 0.0033 | 1.02 ± 0.022
K7ELQ0 and related entries (UniProt Q9BYD3) | 0.997 ± 0.019 | 1.02 ± 0.035
UniProt O14776 and related entries | 0.987 ± 0.025 | 1.009 ± 0.0062
K7EL68 and related entries (UniProt Q16543) | 0.984 ± 0.032 | 1.03 ± 0.065
UniProt O00115 and related entries | 0.927 ± 0.017 | 1.01 ± 0.041
PGRMC1 (UniProt O00264) | 1.03 ± 0.048 | 1.03 ± 0.046
UniProt O43156 | 1.02 ± 0.01 | 0.9731 ± 0.0081
PIK3C2A (UniProt O00443) | 1 ± 0.051 | 1 ± 0.017
UniProt O00487 | 1.01 ± 0.011 | 0.96 ± 0.051
UniProt O14975 and related entries | 1 ± 0.049 | 0.998 ± 0.075
ZW10 (UniProt O43264) | 1.01 ± 0.021 | 0.977 ± 0.043
DENR (UniProt O43583) | 0.988 ± 0.035 | 1.01 ± 0.027
ACOX3 (UniProt O15254) | 1.01 ± 0.026 | 0.961 ± 0.046
GIPC1 (UniProt O14908) | 1 ± 0.019 | 0.999 ± 0.027
UniProt O00148 | 1.03 ± 0.068 | 0.972 ± 0.062
ARID1A (UniProt O14497) | 1 ± 0.032 | 1.01 ± 0.052
NVL (UniProt O15381) | 1.03 ± 0.033 | 1.054 ± 0.0082
K7ESP4 and related entries (UniProt Q8WVC6) | 1.01 ± 0.054 | 1.06 ± 0.037

Single records, as listed above. Values in the order: NP40-soluble protein abundance (concentration: 0.1mM) | NP40-soluble protein abundance (concentration: 0.5mM)
NVL (UniProt O15381) is entered as 1.03 ± 0.033 | 1.054 ± 0.0082
ARPC3 (UniProt O15145) is entered as 0.983 ± 0.11 | 1.14 ± 0.25
